# Experimental data: article PMC7909569, “Unique Cellular and Biochemical Features of Human Mitochondrial Peroxiredoxin 3 Establish the Molecular Basis for Its Specific Reaction with Thiostrepton” (Antioxidants, 2021)
# These are yes or no findings as the source states them, for the method shown. For some of these results: Binding seen in cells or lysates may run through a third protein. Some entries that bind do so weakly or less than the wild type.
# B1: Untagged wild-type PRX3 (residues 62–256) (enzyme, human, UniProt P30048 62-256, looked up)
# chain: APAVTQHAPYFKGTAVVNGEFKDLSLDDFKGKYLVLFFYPLDFTFVCPTEIVAFSDKANEFHDVNCEVVAVSVDSHFSHLAWINTPRKNGGLGHMNIALLSDLTKQISRDYGVLLEGSGLALRGLFIIDPNGVIKHLSVNDLPVGRSVEETLRLVKAFQYVETHGEVCPANWTPDSPTIKPSPAASKEYFQKVNQ
# notes: peroxiredoxin 3 (PRX3), human, mitochondrial, residues 62–256, wild type, untagged; Stored oxidised to the disulfide (1.5 equivalents H2O2); tested reduced, partially oxidised and oxidised; also called peroxiredoxin 3; mitochondrial peroxiredoxin 3; not shown: Intein, N-terminal, cleaved
# B2: Wild-type human PRX1 (enzyme, UniProt Q06830 1-199, looked up)
# chain: MSSGNAKIGHPAPNFKATAVMPDGQFKDISLSDYKGKYVVFFFYPLDFTFVCPTEIIAFSDRAEEFKKLNCQVIGASVDSHFCHLAWVNTPKKQGGLGPMNIPLVSDPKRTIAQDYGVLKADEGISFRGLFIIDDKGILRQITVNDLPVGRSVDETLRLVQAFQFTDKHGEVCPAGWKPGSDTIKPDVQKSKEYFSKQK
# notes: peroxiredoxin 1 (PRX1), human, wild type, untagged, no extra residues; Tested reduced (DTT) and oxidised to the disulfide (H2O2); also called peroxiredoxin 1; WT PRX1
# B3: PRX4 (endogenous, MM tumor cells) (protein, UniProt Q13162 38-271)
# chain: WETEERPRTREEECHFYAGGQVYPGEASRVSVADHSLHLSKAKISKPAPYWEGTAVIDGEFKELKLTDYRGKYLVFFFYPLDFTFVCPTEIIAFGDRLEEFRSINTEVVACSVDSQFTHLAWINTPRRQGGLGPIRIPLLSDLTHQISKDYGVYLEDSGHTLRGLFIIDDKGILRQITLNDLPVGRSVDETLRLVQAFQYTDKHGEVCPAGWKPGSETIIPDPAGKLKYFDKLN
# Experiments:
# [1] = biological target: PRX3 (endogenous, MM tumor cells) (human (endogenous in MM cells, HM cell line)) (UniProt P30048); assay: cross-linking; MM cells (HM cell line) treated with 2.5 or 5 µM TS for 24 h (also with GV or FCCP); lysates on reducing SDS-PAGE, immunoblot; non-reducible dimer at ~45 kDa
# [2] = biological target: PRX3 (endogenous, MM tumor cells) (human (endogenous in MM cells, HM cell line)) (UniProt P30048); assay: non-reducing SDS-PAGE with immunoblot (disulfide-bonded dimer); MM cells with or without 1 µM GV for 24 h (also with FCCP), blocked with 100 mM MMTS, RIPA lysates on non-reducing SDS-PAGE
# [3] = biological target: PRX1 (endogenous, MM tumor cells) (human (endogenous in MM cells, HM cell line)) (UniProt Q06830); assay: as above
# [4] = biological target: PRX4 (endogenous, MM tumor cells) (human (endogenous in MM cells, HM cell line)) (UniProt Q13162); assay: as above
binder,measurement,setting,value
B1,binding,[1],binds
same,binding,[2],binds
B2,binding,[3],binds
B3,binding,[4],binds
